The results in this text go back to PubChem BioAssay AID1508600 (Functional Genomics Laboratory (NCATS/FGL), 2020).

About 3,700 (7%) of roughly 53,000 sequences were called active.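 The calls were made as follows: active = gene knockdowns whose robust z-score for IL-1 alpha signal is at least 2 or at most -2, so actives lie on both sides; inactive = the rest.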 The list shows a part of the results.

The assay in a line: Components of the Cytosolic LPS Sensing Pathway: Gene Identification via Genome-wide siRNA Screen.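 Also: robust z of the log signal after scaling to non-targeting control siRNA wells of the plate.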 To be noted: RAW264.7 macrophages, IL-1a HTRF, actives lie on both sides, screened at 100 nM (by protocol), cells primed 5 h with Pam3CSK4 first. The gist of the method:
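RAW264.7; siRNA 100 nM final, RNAiMAX, 48h 37 degrees C; Pam3CSK4 5 h; LipidA + TransIT-TKO 24 h; IL-1a HTRF; CellTiter-Glo viability; robust z vs negative-control median.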
Background: TR-FRET usually uses a lanthanide donor and a delayed reading to cut background.
On to GGAACAAAAGAAGAAUACCTT against Pkhd1, for which the z-score is inactive: 0.48.
As to GGUUUCUUAUCAAACUCCATT against Farp2, the z-score is inactive: -0.598.
On to CGAAAUCAGAACCUGGGAATT against Hacd3, for which the z-score was active: 2.73.
Under GGAUUGAGUCACUUAUAGATT against Cul4a stands inactive: -0.0102.
Under GGUGACAAUGACCUUAUAGTT against Adsl stands inactive: -0.311; under UUUACUCUCAUGGUAACCUTT against Olfr798, inactive: -0.386.
Consider GGCAGCAACUUGAUAAUAATT against Tmem176a, for which the z-score is inactive: -1.81.
Under GGUUCUAAUAAAAAUCGGUTT against Pcdhb1 stands inactive: 0.659.
Take GGAUGGACAACUGAAGUCATT against Dnajb2: the z-score was inactive: -1.25.
GACCAAAGCACUGACUAUGTT against Lyz2: the z-score is inactive: -0.184.
Under CCUACAUAGCGACAUCCUUTT against Car12 stands inactive: 1.02; under GGCUCAAAUGGUCACCAAUTT against Ms4a13, inactive: -1.25.
Under GGCAGGCAGAAAGCUUUGUTT against Olfr1054 stands inactive: 1.8; under GGUACCGUCAGUUGUCCUATT against Rnf4, inactive: -1.86; under GGUGCUGGUGGAUGAACUATT against Nags, inactive: -1.5.
Under GGAGAUGAUUGACCGGCUATT against Epc1 stands inactive: -1.03; under GGAGGGAAAGAUCAUUACATT against Kirrel2, inactive: 1.47.
GCAUUUGUGGCCUAUGCUCTT against Naprt: the z-score was active: -2.16.
Under GGACGUGCUUCCGAAUAGUTT against Scn1a stands inactive: 0.317; under GCUCCUGUACAGUUCAAACTT against Mrpl17, inactive: 0.0768; under UAUUGUGGACCCAACAGGATT against Olfr1337, inactive: 1.37.
Under CCUUAUGUGCCCUUUCAUCTT against AU018091 stands inactive: -1.08; under GAAUCUAGAAAAGUGGUGCTT against Lce1d, inactive: -0.943; under GCCGCACCGAAAGUGAAAUTT against Copz2, inactive: -0.391.
Under GGUUGGACAACAUAAUAAGTT against Riox2 stands inactive: 1.17; under GGCCUUGAAGUCUGAAUUCTT against Fgd2, inactive: -0.936; under GGUGGGAAGUAUUUAUUUATT against Grasp, inactive: 0.655.
Turning to GGUCAGAAACUUCACCAAGTT against Ccr6, the z-score was inactive: -1.12.
Under GGUAUUGAUCAAUAUGACATT against Ddx46 stands inactive: -1.13.
Under CGAGGAGUGGUAUUUUUACTT against Slc34a1 stands inactive: 0.0248.
Under “GGCUAAGUGUGGAAUAGUUTT against 4933427D06Rik” stands inactive: 1.02; under GCUAGAGUACAGCAAGCUGTT against Aifm3, inactive: 1.21.
Regarding GGUUCAGCACAAAGAAACATT against Rapgef5, the z-score was inactive: -1.43.
Under GGAUCUUGGCUAAAGAGGGTT against Slc25a25 stands inactive: 0.0129; under GGUGCCUUUCUGCUUUUGATT against Spink12, inactive: 1.87.
Under GGAGAACACUUUAAUGCUGTT against Ovch2 stands inactive: 0.00992; under GGUAUCAGGUACCAACGACTT against Cpne6, inactive: 0.768.
Under GGACGGAAUCAGGAACAUUTT against Echdc3 stands inactive: -0.358; under GCCUCAAUUCCUCUACGCUTT against Sytl1, inactive: -1.34; under GGAUGGAUCAUCUUUUCUATT against Nme2, inactive: 1.34.
In the case of GGGACUCAACGCACUUUCUTT against Ambn, the z-score is inactive: -0.995.
Consider GGAAGCAGUAUCUCGGAAATT against Slc4a1ap, for which the z-score is inactive: 1.08.
For the sequence CCAGUGUAGAGCACAAAUCTT against Ahr, the z-score was active: 2.51.
Under GGUGUUACUAAUGUUUAUCTT against Cd209e stands inactive: 0.859; under GGUUCCUGGAUGGUUCCUATT against Vtcn1, inactive: 1.45; under GGGAAGAGAAGUUAAAGGATT against Wnt8a, inactive: 0.252.
Under GGCCUUCUCUGUCUUCUACTT against Olfr279 stands inactive: -0.562.
Under CCAGAAUCGAUAGGCAGUCTT against Capn10 stands inactive: -0.315.
GGAAGGUUUGUUUUGUUUGTT against Slc24a3: the z-score is inactive: 0.0291.
Under GGUGACACAGCUGCUUUUCTT against Dact2 stands inactive: 0.107; under CCCAUCCUUCCAACCAGAATT against Coro2a, inactive: -0.524; under GCCUAGAUGACCUCAAUGUTT against Fam160b1, inactive: 0.131.
For GGCCCAGAGAGAAAAAUACTT against Acadvl, the z-score is inactive: -0.633.
Under UCCACUUCACUAAUCCUGUTT against Vmn2r43 stands active: -2.52; under GGUUCCAUCUUCUCAGGACTT against Olfr395, inactive: 1.01; under CCUUCAAGCUGUGCUUUUUTT against Olfr820, inactive: -0.0602.
For the sequence GGAAUGUCCAAAGCCUUCATT against Olfr907, the z-score is inactive: 0.289.
On to GGGAACAUGUUUUACUCUUTT against Zfp521, for which the z-score is inactive: 1.63.
Under GGUUCUCUGUACAAGAGAUTT against Smarcb1 stands inactive: -0.41.
CCCUGAGCGAUUCAAUCUGTT against Trim27: the z-score is inactive: -1.27.
For GCAUCGUCCUCCAAAGAUUTT against Sf3b1, the z-score was active: -3.01.
For the sequence CCUGAAAACUCGUGAAGGGTT against Gnb1, the z-score is inactive: -0.825.
In the case of CGUGUACUCCUGGUUUCCCTT against Hcfc2, the z-score is inactive: 0.369.
Under GGAUCAAGGAGCAAGUGGUTT against B4galnt1 stands inactive: -1.7; under CCAUAGACUGAAUCAACUATT against Rgs14, inactive: 1.56; under CCUUCAACCUUCGAGAUACTT against Kcnh2, inactive: -0.417.
With GGUUACUAGAUGUAUUUUGTT against Ppp3cb, the z-score is inactive: -0.785.
Under GGACGGAGAGUUUAUUUUUTT against Ptgfrn stands inactive: -0.468; under GGAAGUUCAAGAAGAUCAUTT against Angel2, inactive: -0.624.
Under CCUCAUCUAUCCCAUCUUUTT against Alad stands inactive: -0.191.
Turning to GCUGUUUAUCUAGCUGUUATT against Mmp8, the z-score is inactive: 0.782.
Under GGUCUUGAAUUUAUGGAUUTT against Stab1 stands inactive: 0.0147.
Under GGUUUACCUCUAUAAGAAUTT against Tas2r106 stands inactive: 0.648; under “GGGAAAUGGCUCAUACUGGTT against 2210010C04Rik”, inactive: -1.04.
Under GCCUUUGUUAAUGUUCGCUTT against Ifi44l stands inactive: 0.205; under AGACAUCGUGCGAUAUUUGTT against Cdkn2a, inactive: -1.69.
On to “GCUCAGACCAUAGUUUCUATT against A930002I21Rik”, for which the z-score was inactive: 1.14.
Under GCAUGUGAAAUCUAGAUCATT against Cks1b stands inactive: -0.0851.
For the sequence GGAGCAGCAGAAGAUCCUUTT against Olfr47, the z-score was active: 2.52.
Consider CCCUGGUAAACACCAAUAGTT against Ctnna1, for which the z-score was inactive: 0.849.
As for CCGAAUUUUUCAAUGGCAATT against Pzp, the z-score was inactive: -0.565.
Under GCUGCCGGAAAAGUGUCUATT against Lrrn3 stands inactive: 0.374; under “CCUUGUUAUAGACCAACCUTT against 2310034C09Rik”, inactive: 0.525; under GGUUUUGAGAAGAUAACUCTT against Zfp236, inactive: 0.67.
In the case of GGCAUUUAGACUUUUUUGATT against Daam1, the z-score is inactive: -0.399.
Under GGAUGUUAUAAGAUUGCGUTT against Rnf170 stands inactive: -0.0307; under GGCUAGGUAAUCACUGGGUTT against Fate1, inactive: 0.987.
Under GGCUCGUCAGUUCUAAGUUTT against Cxcl10 stands inactive: 0.54; under GCUGUGAUGUUCAUUGAUATT against Oas2, inactive: 0.172.
Under CCACGAGUUGCUGUCGUCATT against Adam22 stands inactive: 0.564; under CCCUUUCAUUUACUCGUUGTT against Olfr787, inactive: 0.617; under “GGUCCAUAUGUCUUUUUUCTT against 9430097D07Rik”, inactive: 0.237.
Turning to GCUUGAAGCGAGACGAUACTT against Bhlhe41, the z-score is inactive: -0.349.
Under GGCUGUGAAUCUGAAGAGCTT against Chrna6 stands inactive: 0.241; under GGACUGUCAAUACUCUUUUTT against Gpr33, inactive: -0.158.
Under GCCGUUCCACUCUUGGUAATT against Ranbp6 stands inactive: 1.26; under GAAGCCUCUCUAUGUGCACTT against Vmn1r5, inactive: -0.0271; under GGAACAGCUGACCUACUUUTT against Ahi1, inactive: 1.08.
Under GCUAUGCUACUGGUUGUGGTT against Olfr1351 stands inactive: 0.161.
Take GGUACAAACUCUCCCUAGATT against Ube2c: the z-score is inactive: -1.29.
Under GCAGAAUCGCUUCAGUUCUTT against Tmed6 stands inactive: 0.49; under GCGACUCCCACAUACUCAGTT against Muc19, inactive: -0.215.
In the case of GGCAGCUAAGUACGUUCAUTT against Gba, the z-score was inactive: 0.177.
For GGAGAAGUGGUAGAAACUGTT against Brd8, the z-score was inactive: -1.3.
Under GGCCAAAAAAGGGUAUAAGTT against Rad18 stands inactive: 0.0516.
Under GGGACUGUACCCAGUUUAATT against Ccl27a stands inactive: 1.62.
